Data: patent publication US20250032403A1, “COMPOSITIONS FOR TREATING PERIODONTAL DISEASES” (GR Biosystems, Inc., priority 2017, published 2025)
At least one compound was matched to its structure with a doubt left.

What was measured:
Type in all cases: cell-based, human
MMP-2 = experiment: Western blot of MMP-2 in HGF-1 cells treated with FAC, CMK or deferoxamine; conditions: HGF-1, deferoxamine 50, 100, 150 μM, FIG. 12
Experimental: (§1) MMP inhibition was tested using CMK and deferoxamine (DES). Ferric ammonium citrate solid (FAC, Amresco) was prepared in 1 mM hydrochloric acid to form a 50 mM stock solution. Iron solutions were freshly made for each experiment and the iron content quantified through a colorimetric assay. Cells were induced with FAC concentrations of 20, 50, and 100 μM, LPS and CMK or a combination, and the cells were allowed to grow in the incubator for 48 hours.
(§2) During the protein extraction, media was collected, flash frozen and saved for later analysis, including Western Blot and ELISA. Cells were washed with cold PBS and lysed with RIPA buffer (150 mM NaCl, 50 mM Tris, 1% Sodium deoxycholate, 1% Triton X-100 and 0.1% SDS). Cells were collected with a cell scraper and centrifuged at 14000 rpms for 30 minutes. The supernatant was collected and assayed for protein concentration. Samples were mixed with 4×SDS loading buffer (40% Glycerol, 8% SDS, 200 mM Tris-HCl, 400 mM dithiothreitol, 0.005% bromophenol blue) for further analysis.
(§3) Gel electrophoresis was conducted using 12% sodium dodecyl sulfate (SDS) and polyacrylamide gels. Equal amounts (30-50 μg) of protein were loaded in each lane and allowed to separate for 1 hour at 150 V.
(§4) Proteins from gels were transferred into 0.45 μm nitrocellulose paper (Bio-Rad) using tris-glycine transfer buffer with 20% methanol using 400 mAmp for 90 minutes. […]

MMP-14 = experiment: Western blot of MMP-14 in HGF-1 cells treated with FAC, CMK or deferoxamine; conditions: HGF-1, deferoxamine 50, 100, 150 μM, FIG. 14
Experimental: as §1, §2, §3, §4

MMP-9 = experiment: Western blot of MMP-9 in HGF-1 cells treated with FAC or deferoxamine; conditions: HGF-1, deferoxamine 50, 100, 150 μM, FIG. 13
Experimental: as §1, §2, §3, §4

SMILES: CC(=O)N(O)CCCCCNC(=O)CCC(=O)N(O)CCCCCNC(=O)CCC(=O)N(O)CCCCCN [deferoxamine]
- MMP secretion (MMP-2) (MMP-2): significantly decreased in a dose-dependent manner
- MMP secretion (MMP-14) (MMP-14): significantly decreased in a dose-dependent manner
- MMP secretion (MMP-9) (MMP-9): significantly decreased in a dose-dependent manner
